Measurements reported in PubChem BioAssay AID1259308 (NCATS, 2017)

- Assay: 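Candidate targets for better recombinant protein yield in mammalian cells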 (primary screen)
- System: human HEK293 embryonic kidney cells stably expressing firefly luciferase (HEK-CMV-Luc2-Hygro)
- Reagent: single siRNA against human genes, 0.8 pmol siRNA per well
- Time to read-out: 72 h
- Measured: 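Luciferase light (ONE-Glo) measured on one replicate plate set and viability (CellTiter-Glo) on the other, scaled to a negative control siRNA, with robust z-scores and luciferase per cell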
- Scale: total luciferase, z-score: higher = more reporter protein produced
- Active means: 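Active when the median/MAD z-score for overall luciferase is greater than 3; a gene was taken forward for validation with new siRNAs if at least two of its three siRNAs passed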
- Meaning of the calls: active = raised luciferase; inactive = no rise
In all, the deposit lists about 59,000 reagents; this is a part drawn at random. Of all reagents, about 1,510 (2.6%) got an active call. 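Calls use total luciferase alone and ignore viability, so some active siRNAs may act by altering cell number.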 A number with no mark means an inactive call. The numbers tell different reagents against one gene apart. Further read-outs or replicates are left out here. Reagent sequences are not shown.

| gene knocked down | reagent | total luciferase, z-score |
| --- | --- | --- |
| COX6C | 1 | -0.0226 |
| COX6C | 2 | 1.13 |
| COX6C | 3 | -0.17 |
| MAD2L1 | 1 | -0.974 |
| MAD2L1 | 2 | 1.97 |
| MAD2L1 | 3 | 1.79 |
| CDHR4 | 1 | -0.213 |
| CDHR4 | 2 | -1.43 |
| CDHR4 | 3 | -1.07 |
| NLGN2 | 1 | 0.521 |
| NLGN2 | 2 | -0.0558 |
| NLGN2 | 3 | 0.273 |
| HMOX2 | 1 | 0.983 |
| HMOX2 | 2 | -0.721 |
| HMOX2 | 3 | 0.493 |
| IFIT1 | 1 | -1.28 |
| IFIT1 | 2 | -0.281 |
| IFIT1 | 3 | -0.179 |
| PTS | 1 | -0.896 |
| PTS | 2 | -1.47 |
| PTS | 3 | -0.61 |
| PYCARD | 1 | 0.742 |
| PYCARD | 2 | -0.0548 |
| PYCARD | 3 | 0.144 |

Laid out differently: entries from further up.
gene knocked down	reagent	total luciferase, z-score
IFIT1	2	-0.281
IFIT1	3	-0.179
PTS	1	-0.896
PTS	2	-1.47
